Where a name gives a salt, the structure may show the parent alone.
Test system: cynomolgus monkeys
Assay: qEEG power spectra after treatment with drug alone (radio-telemetry EEG)
Assay type: in vivo, cynomolgus monkeys (Macaca fascicularis)
Experimental: Implant surgery was carried out at Hamri Company Limited (Ibaraki, Japan). Briefly, under isoflurane anesthesia (1–5%, Pfizer Japan Inc., Tokyo, Japan), male cynomolgus monkeys (3–5 years old, Hamri Co., Ltd., Ibaraki, Japan) were surgically implanted with radio-telemetry transmitters (TL10M3-D70-EEE, Data Sciences International Inc., St. Paul, MN). EEG leads were stereotaxically positioned in the parietal area and secured to the cranium with stainless-steel screws in contact with the dura. […] Bilateral electromyography (EMG) leads were implanted in the back cervical muscles. After surgery, each monkey was administered penicillin (100,000 units/animal, i.m., Meiji Seika Pharma Co., Ltd., Tokyo, Japan), buprenorphine (0.02 mg/kg, i.m., Otsuka Pharmaceutical Co., Ltd., Tokyo, Japan), and prednisolone (1 mg/kg, subcutaneously [s.c.], Kyoritsu Seiyaku Co., Ltd., Tokyo, Japan) daily for one week.
TAK-071, 4-fluoro-2-[(3S,4S)-4-hydroxytetrahydro-2H-pyran-3-yl]-5-methyl-6-[4-(1H-pyrazol-1-yl)benzyl]-2,3-dihydro-1H-isoindol-1-one, was synthesized by Takeda Pharmaceutical Company Limited (Kanagawa, Japan). Donepezil hydrochloride and xanomeline oxalate were purchased from Mega Fine Pharma (P) Limited (Mumbai, India) and Metina AB (Lund, Sweden), respectively. […] TAK-071 and donepezil hydrochloride were suspended in 0.5% (w/v) methylcellulose in distilled water and the volume of administration was 2 mL/kg orally (p.o.). […] The doses of compounds correspond to their salt forms. The administration was scheduled according to a 3×3 cross-over design.
After at least a 1-month recovery period in their home cages, the monkeys were habituated to the recording chamber (acrylic cage, 60 × 55 × 75 [cm^3 width × depth × height]) located in a soundproof, electrically shielded room. Cortical EEG, EMG, and EOG signals were recorded at a sampling rate of 500 Hz using Dataquest ART software (Data Sciences International, New Brighton, MN). The behavioral and postural changes of the animals were observed using a video camera continuously throughout the experiment. The recordings were performed between 9 a.m. and 4 p.m..
EEG data were analyzed off-line using SleepSign (KISSEI COMTEC Co., Ltd., Nagano, Japan). Digitized EEG signals were high-pass filtered with a 0.75-Hz filter. Spectral power densities for each frequency band were calculated by fast Fourier transform in consecutive 10-s epochs. Epochs containing abnormal EEG, defined by excessive amplitude (> 500 μV), were omitted from data analysis. For analysis of temporal changes in a specific spectral band (1–4 Hz for delta, 4–8 Hz for theta, 8–12 Hz for alpha, 12–30 Hz for beta, 30–80 Hz for gamma), the EEG power of each spectral band was calculated every 15 min. For each animal, the qEEG spectral analyses were performed from 30 to 240 min after treatment because oral and subcutaneous administration of drugs to monkeys can affect the qEEG power spectra. Data obtained in the post-drug period were normalized with those obtained in the baseline period and were calculated as the area under the curve (AUC) between 30 and 210 min after drug administration for quantitative analyses.

[1] = scopolamine alone, 50 and 100 μg/kg s.c., vs vehicle, P ≤ 0.05, 4 monkeys

In the case of `CN1[C@@H]2C[C@@H](OC(=O)[C@H](CO)c3ccccc3)C[C@H]1[C@@H]1O[C@@H]12` [scopolamine, Scopolamine hydrobromide], the “beta power band of qEEG spectra” value (scopolamine 25–100 μg/kg s.c.) is reported as “did not change remarkably”, the “gamma power band of qEEG spectra” value (scopolamine 25–100 μg/kg s.c.) is reported as “did not change remarkably” and the “alpha power band of qEEG spectra (AUC 30-210 min)” value [1] is reported as “significantly increased”. For the same molecule, the “delta power band of qEEG spectra (AUC 30-210 min)” value [1] was “significantly increased” and the “theta power band of qEEG spectra (AUC 30-210 min)” value [1] was “significantly increased”.
